Measurements reported in the supplement of paper PMC10331698.
± gives the standard deviation of the averaged measurements. Most entries show no effect beyond the scatter of the controls.

Experiments:
Experiment in all cases: level (log10 ratio to DMSO vehicle control); higher = higher biomarker level / cell amount than vehicle control
[1] = compound: O=P(O)(O)CCC(F)(F)C(F)(F)C(F)(F)C(F)(F)C(F)(F)C(F)(F)C(F)(F)C(F)(F)F [((Perfluorooctyl)ethyl)phosphonic acid]; details: 2200 nM; in DMSO
Method: (§1)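 BioMAP Diversity Plus panel of 12 human primary cell co-culture systems (3C, 4H, LPS, SAg, BT, BF4T, BE3C, CASM3C, HDF3CGF, KF3CT, MyoF, Mphg). Compounds were added 1 h before stimulation and left for 24 h (MyoF 48 h; BT 72 h for soluble read-outs or 6 d for IgG). Biomarkers were read by ELISA, cytotoxicity by SRB, PBMC viability and proliferation by Alamar Blue. Each well value was divided by the mean of 8 DMSO control wells on the same plate and log10 transformed; duplicate blinded samples were tested at 4 concentrations.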

[2] = compound: C=C(C)C(=O)OCC(F)(F)C(F)(F)C(F)(F)F [2,2,3,3,4,4,4-Heptafluorobutyl methacrylate]; details: 2200 nM; in DMSO
Method: as §1

[3] = compound: FC(F)(F)C(F)(F)C(F)(F)C(F)(F)C(F)(F)C(F)(F)C(F)(F)CCI [1-Iodo-1H,1H,2H,2H-perfluorononane]; details: in DMSO
Method: as §1

Perfluoroundecanoic acid = compound: O=C(O)C(F)(F)C(F)(F)C(F)(F)C(F)(F)C(F)(F)C(F)(F)C(F)(F)C(F)(F)C(F)(F)C(F)(F)F [Perfluoroundecanoic acid]; details: in DMSO
Method: as §1

Perfluorobutanoic acid = compound: O=C(O)C(F)(F)C(F)(F)C(F)(F)F [Perfluorobutanoic acid]; details: 2200 nM; in DMSO
Method: as §1

[4] = compound: O=C(O)C(F)(F)C(F)(F)OC(F)(F)F [Perfluoro-3-methoxypropanoic acid]; details: 2200 nM; in DMSO
Method: as §1

[5] = compound: FC(F)C(F)(F)COCC1CO1 [((2,2,3,3-Tetrafluoropropoxy)methyl)oxirane]; details: 2200 nM; in DMSO
Method: as §1

Perfluoropropanoic acid = compound: O=C(O)C(F)(F)C(F)(F)F [Perfluoropropanoic acid]; details: 2200 nM; in DMSO
Method: as §1

[6] = compound: FC(F)(F)C(F)(F)C(F)(F)C(F)(F)C(F)(F)C(F)(F)C(F)(F)I [1-Iodopentadecafluoroheptane]; details: in DMSO
Method: as §1

[7] = compound: OCCC(F)(F)C(F)(F)C(F)(F)C(F)(F)C(F)(F)C(F)(F)C(F)(F)C(F)(F)F [8:2 Fluorotelomer alcohol]; details: 2200 nM; in DMSO
Method: as §1

[8] = compound: O=C(O)C(F)(F)OC(F)(F)C(F)(F)OC(F)(F)C(F)(F)C(F)(F)C(F)(F)F [Perfluoro-3,6-dioxadecanoic acid]; details: 2200 nM; in DMSO
Method: as §1

[9] = compound: OCC(F)(F)C(F)(F)C(F)(F)C(F)(F)C(F)(F)C(F)(F)C(F)(F)C(F)(F)C(F)(F)C(F)(F)C(F)(F)F [11:1 Fluorotelomer alcohol]; details: in DMSO
Method: as §1

[10] = compound: O=C(O)C(F)(F)C(F)(F)C(F)(F)C(F)(F)C(F)(F)C(F)(F)C(F)(F)C(F)F [9-H-Perfluorononanoic acid]; details: 2200 nM; in DMSO
Method: as §1

[11] = compound: O=C(O)C(F)(F)OC(F)(F)C(F)(F)OC(F)(F)C(=O)O [Perfluoro-3,6-dioxaoctane-1,8-dioic acid]; details: 2200 nM; in DMSO
Method: as §1

Perfluorooctanamide = compound: NC(=O)C(F)(F)C(F)(F)C(F)(F)C(F)(F)C(F)(F)C(F)(F)C(F)(F)F [Perfluorooctanamide]; details: 2200 nM; in DMSO
Method: as §1

[12] = compound: C=CC(=O)OCC(F)(F)C(F)(F)C(F)(F)C(F)(F)COC(=O)C=C [1H,1H,6H,6H-Perfluorohexane-1,6-diol diacrylate]; details: 2200 nM; in DMSO
Method: as §1

[13] = compound: O=S(=O)(Cl)C(F)(F)C(F)(F)C(F)(F)C(F)(F)C(F)(F)C(F)(F)C(F)(F)C(F)(F)F [Perfluoro-1-octanesulfonyl chloride]; details: 2200 nM; in DMSO
Method: as §1

[14] = compound: O=C(O)C=CC(F)(C(F)(F)F)C(F)(F)F [3-(Perfluoroisopropyl)-2-propenoic acid]; details: in DMSO
Method: as §1

Test System | level (log10) [1] | level (log10) [2] | level (log10) ([3]; 740 nM) | level (log10) ([3]; 2200 nM) | level (log10) ([3]; 6700 nM) | level (log10) ([3]; 20000 nM) | level (log10) (Perfluoroundecanoic acid; 740 nM) | level (log10) (Perfluoroundecanoic acid; 2200 nM) | level (log10) (Perfluorobutanoic acid) | level (log10) [4] | level (log10) [5] | level (log10) (Perfluoropropanoic acid) | level (log10) ([6]; 740 nM) | level (log10) ([6]; 2200 nM) | level (log10) ([6]; 6700 nM) | level (log10) ([6]; 20000 nM) | level (log10) [7] | level (log10) [8] | level (log10) ([9]; 370 nM) | level (log10) ([9]; 1100 nM) | level (log10) ([9]; 3300 nM) | level (log10) ([9]; 10000 nM) | level (log10) [10] | level (log10) [11] | level (log10) (Perfluorooctanamide) | level (log10) [12] | level (log10) [13] | level (log10) ([14]; 2200 nM) | level (log10) ([14]; 6700 nM) | level (log10) ([14]; 20000 nM) | level (log10) ([14]; 60000 nM)
HDF3CGF:MMP-1 | -0.003 ± 0.016 | -0.0275 ± 0.028 | -0.0125 ± 0.019 | -0.006 | 0.011 ± 0.017 | 0.061 ± 0.04 | -0.0165 ± 0.018 | -0.0055 ± 0.011 | 0.0145 ± 0.021 | 0.005 ± 0.0014 | 0.0205 ± 0.00071 | -0.0035 ± 0.039 | 0.006 | -0.008 | -0.0105 ± 0.0021 | -0.0285 ± 0.018 | -0.0015 ± 0.00071 | -0.0025 ± 0.0021 | -0.0295 ± 0.012 | -0.011 ± 0.0057 | -0.042 ± 0.0014 | -0.0255 ± 0.035 | -0.015 ± 0.041 | 0.0045 ± 0.00071 | -0.0135 ± 0.011 | 0.0285 ± 0.00071 | -0.028 ± 0.025 | 0.0045 ± 0.0035 | 0.0005 ± 0.012 | 0.008 ± 0.011 | 0.0005 ± 0.0064
KF3CT:CXCL8/IL-8 | 0.017 ± 0.018 | 0.0095 ± 0.0064 | 0.0105 ± 0.005 | 0.0055 ± 0.0092 | 0.013 ± 0.0071 | 0.0605 ± 0.0092 | 0.015 ± 0.0099 | 0.0025 ± 0.037 | 0.011 ± 0.041 | 0.007 ± 0.045 | 0.007 ± 0.025 | 0.0205 ± 0.0092 | 0.0025 ± 0.0078 | 0.0055 ± 0.005 | 0.0135 ± 0.0021 | 0.014 ± 0.0028 | 0 ± 0.016 | -0.0115 ± 0.018 | -0.0095 ± 0.0064 | 0 ± 0.013 | 0.015 | 0.014 ± 0.025 | 0.0025 ± 0.018 | 0.012 ± 0.041 | -0.011 ± 0.0057 | 0.0055 ± 0.00071 | -0.0045 ± 0.0078 | 0.007 ± 0.034 | 0.001 ± 0.013 | 0.0085 ± 0.028 | 0.018 ± 0.0014
BF4T:uPA | 0.0105 ± 0.023 | -0.0155 ± 0.0035 | -0.0145 ± 0.019 | -0.0205 ± 0.028 | -0.011 ± 0.035 | -0.012 ± 0.033 | -0.016 ± 0.038 | -0.0355 ± 0.015 | 0.004 ± 0.0071 | 0.0055 ± 0.026 | 0.01 ± 0.0071 | -0.0095 ± 0.0021 | -0.0145 ± 0.056 | 0.0115 ± 0.005 | -0.0365 ± 0.016 | -0.026 ± 0.016 | -0.0335 ± 0.022 | 0.0075 ± 0.0064 | -0.008 ± 0.0085 | 0 | -0.005 ± 0.0071 | 0.0015 ± 0.0064 | -0.015 ± 0.011 | 0.01 ± 0.025 | -0.005 ± 0.024 | 0.0155 ± 0.0078 | -0.0265 ± 0.021 | 0.018 ± 0.047 | -0.007 ± 0.016 | -0.016 ± 0.0057 | 0.0065 ± 0.018
BF4T:CD106/VCAM-1 | 0.005 ± 0.033 | -0.0155 ± 0.03 | 0.007 ± 0.011 | 0.025 ± 0.0014 | -0.027 ± 0.0085 | -0.061 ± 0.014 | -0.0035 ± 0.059 | -0.0415 ± 0.0064 | 0.0185 ± 0.015 | -0.0005 ± 0.069 | 0.0315 ± 0.022 | -0.003 | 0.0225 ± 0.022 | -0.01 ± 0.0085 | -0.005 ± 0.011 | -0.031 ± 0.0028 | 0.0015 ± 0.063 | -0.0285 ± 0.067 | -0.007 ± 0.0099 | 0.0045 ± 0.016 | -0.021 ± 0.025 | -0.016 ± 0.02 | -0.0235 ± 0.044 | -0.014 ± 0.04 | 0.012 ± 0.03 | -0.019 ± 0.0085 | 0.0045 ± 0.067 | -0.0095 ± 0.064 | -0.0095 ± 0.04 | -0.0275 ± 0.025 | 0.0225 ± 0.019
BT:sIL-17A | 0.119 ± 0.1 | -0.064 ± 0.073 | 0.053 ± 0.085 | 0.047 ± 0.082 | 0.0035 ± 0.1 | -0.0305 ± 0.15 | 0.043 ± 0.045 | 0.0175 ± 0.015 | -0.235 ± 0.03 | 0.021 ± 0.0071 | 0.0065 ± 0.13 | -0.045 ± 0.13 | 0.019 ± 0.05 | -0.0405 ± 0.16 | -0.213 ± 0.3 | -0.112 ± 0.31 | 0.0665 ± 0.09 | -0.0265 ± 0.057 | 0.161 ± 0.23 | 0.329 ± 0.16 | 0.401 ± 0.032 | 0.325 ± 0.06 | -0.0615 ± 0.05 | -0.115 ± 0.076 | -0.0895 ± 0.044 | -0.184 ± 0.16 | -0.177 ± 0.084 | -0.053 ± 0.2 | -0.01 ± 0.047 | 0.024 ± 0.14 | -0.124 ± 0.13
3C:CD54/ICAM-1 | 0.013 ± 0.0099 | 0.005 ± 0.03 | 0.016 ± 0.023 | 0.0025 ± 0.0092 | -0.0115 ± 0.00071 | 0.0025 ± 0.016 | 0.003 ± 0.014 | -0.007 ± 0.016 | -0.0245 ± 0.00071 | 0.0135 ± 0.025 | 0.0065 ± 0.012 | -0.0055 ± 0.0078 | -0.0175 ± 0.0021 | -0.021 ± 0.0085 | -0.0115 ± 0.00071 | 0.014 ± 0.016 | -0.0035 ± 0.016 | 0.0165 ± 0.0092 | 0.0085 ± 0.033 | 0.011 ± 0.03 | 0.0305 ± 0.028 | 0.0385 ± 0.018 | 0.0105 ± 0.0035 | 0.014 ± 0.017 | -0.0005 ± 0.0064 | 0.0205 ± 0.011 | -0.0155 ± 0.0064 | 0.015 ± 0.013 | -0.013 ± 0.033 | -0.0185 ± 0.025 | -0.003 ± 0.013
HDF3CGF:M-CSF | 0.0395 ± 0.005 | 0.044 ± 0.0042 | 0.014 ± 0.0028 | -0.019 ± 0.0099 | -0.0895 ± 0.049 | -0.12 ± 0.064 | 0.0275 ± 0.0064 | 0.031 ± 0.0071 | 0.0105 ± 0.021 | -0.011 ± 0.0057 | -0.005 ± 0.035 | -0.01 ± 0.031 | 0.002 ± 0.0085 | -0.0105 ± 0.0078 | -0.0165 ± 0.018 | -0.0165 ± 0.0064 | -0.0125 ± 0.032 | -0.043 ± 0.0071 | 0.0225 ± 0.028 | 0.0115 ± 0.016 | 0.0095 ± 0.032 | -0.003 ± 0.021 | 0.0085 ± 0.013 | -0.0035 ± 0.00071 | -0.0055 ± 0.023 | -0.123 ± 0.029 | -0.0225 ± 0.042 | -0.0075 ± 0.016 | -0.0005 ± 0.0021 | 0.001 ± 0.0028 | 0 ± 0.0057
